Source: PubChem BioAssay AID504648 (National Center for Advancing Translational Sciences (NCATS), 2011)
Among all 390,000 compounds or so, about 610 (0.16%) were called active. The inconclusive results got no clear call from the source; some entries with a clear call stand among them for comparison. Calls come from the whole dose curve; as a rule, active = well fitted inhibition curve with a large enough effect; inconclusive = small, poorly fitted or top-dose-only effect, or effect the other way, or another doubt; inactive = no such curve, though single readings can be large or run the other way. Potencies beside an inconclusive call are fits to weak or partial responses and may not hold up.

experiment: Nrf2 qHTS screen for inhibitors: counterscreen for cytotoxicity; conditions: A549 ARE-Fluc cells, CellTiter-Fluor viability, 18-24 h; activity change, negative = cytotoxicity: at 46 µM (top of the series)
In short: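 A549 ARE_Fluc cells in 5% FBS OPTI-MEM were exposed to compounds in concentration-response for 18-24 h at 37 deg C. Viability was read by CellTiter-Fluor fluorescence (Ex 405/Em 525) after 30 min, before the luciferase read.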
% is set by controls: 0 for no effect and ±100 for the full control effect; potency is the fitted concentration of half-maximal effect.

| Compound | Potency | activity change, negative = cytotoxicity |
| --- | --- | --- |
| Cc1cc(C)c(NC(=O)CCn2c(=O)c3cccn3c3ccccc32)c(C)c1 | inconclusive: 32.6 µM [falling, partial curve, poor fit] |  |
| COc1ccccc1-c1nnc2sc(-c3ccc(N(C)C)cc3)nn12 | inconclusive: 9.2 µM [falling, partial curve, poor fit] |  |
| CCOC(=O)c1[nH]cnc1C(=O)Nc1ccc(C)cc1 | inconclusive: 5.17 µM [activator, partial curve] |  |
| COc1ccc(C(CCN2CCOCC2)c2c(OC)cc(OC)c3ccc(=O)oc23)cc1 (stereo unspecified) | active: 14.6 µM |  |
| COCCCN1C(=O)c2[nH]nc(-c3ccccc3O)c2C1c1ccc(OCc2ccccc2)cc1 (stereo unspecified) | inconclusive: 18.4 µM [falling, single point] |  |
| O=C(CSC1=NCCS1)Nc1ccnc2ccccc12 |  | inactive: -14.6% |
| O=C(Nc1c(Cl)cc([N+](=O)[O-])cc1Cl)c1cc(Cl)ccc1O | inconclusive: 29.1 µM [falling, single point] |  |
| CC1CCN(C(=O)CCc2nc3cc(S(=O)(=O)N(C)C)ccc3n2C)CC1 | inconclusive: 7.31 µM [falling, single point] |  |
| CCn1c(=O)c([N+](=O)[O-])c(NCc2ccco2)c2ccccc21 | inconclusive: 2.31 µM [activator, partial curve] |  |
| CC(C)Oc1ncnc2c1[nH]c1ccccc12 |  | inactive: -11.8% |
| COCCCNC(=O)CSc1nc2cc3c(cc2c(=O)n1CCCCCC(=O)NCc1ccc2c(c1)OCO2)OCO3 |  | inactive: -5.3% |
| CN1CCN(Cc2cc(=O)oc3cc4c(cc23)CCC4)CC1 | inconclusive: 9.2 µM [activator, partial curve, poor fit] |  |
| COc1ccc(N/C=C/C(=O)c2ccccc2)cc1 |  | inactive: -6.33% |
| CSc1ccc(CCNC(=O)C(C)n2nc(C)c3sc4ccccc4c3c2=O)cc1 (stereo unspecified) | inconclusive: 16.4 µM [falling, partial curve, poor fit] |  |
| O=C(Nc1ccc(Cl)c(Cl)c1)Nc1ccc(N2CCCC2)c(S(=O)(=O)Nc2ccccc2Cl)c1 | inconclusive: 25.9 µM [falling, single point] |  |
| O=C(NCc1ccccc1Cl)c1ccc(Cn2c(SCc3ccccc3)nc3cccnc32)cc1 | inconclusive: 18.4 µM [falling, partial curve, poor fit] |  |
| Cc1ccccc1OCC(=O)NCCN(C)C | inconclusive: 23.1 µM [activator, partial curve, poor fit] |  |
| COc1ccc(Cn2c(=O)c3[nH]cnc3n(-c3ccccc3C)c2=O)cc1 | inconclusive: 14.6 µM [falling, partial curve] |  |
| Cc1ccc(OCC(=O)Nc2ccc(NC(=O)c3cccs3)cc2)c(C)c1 | inconclusive: 29.1 µM [falling, partial curve, poor fit] |  |
| CCOC(=O)Cn1cnc2c(cnn2-c2ccc(OC)cc2)c1=O |  | inactive: -0.868% |
| O=C1NC(=S)N/C1=C/c1cc([N+](=O)[O-])ccc1O | inconclusive: 23.1 µM [falling, partial curve, poor fit] |  |

| Compound | Potency | activity change, negative = cytotoxicity |
| --- | --- | --- |
| COc1ccc(/C=C2\SC(=O)N(CCNC(=O)C3=COCCO3)C2=O)cc1 | inconclusive: 10.3 µM [falling, partial curve, poor fit] |  |
| Cc1ccc(S(=O)(=O)NCC(C)n2nc(C)cc2C)cc1 (stereo unspecified) |  | inactive: 0.27% |
| Cc1ccccc1C(=O)O/N=C(\N)c1ccccc1 | inconclusive: 23.1 µM [falling, single point] |  |
| COCCCn1c(=N)c(C(=O)NCc2cccnc2)cc2c(=O)n3cc(C)ccc3nc21 | inconclusive: 3.66 µM [activator, full curve, poor fit] |  |
| COc1cc(CCNC(=O)c2ccc3c(c2)c(C)c(C)n3Cc2cccc(C)c2)cc(OC)c1OC | inconclusive: 20.6 µM [falling, partial curve, poor fit] |  |
| O=C1CCCC2=C1C1(CCC1)N=C(Nc1nc3ccccc3o1)N2 |  | inactive: 12.6% |
| O=C(NCc1ccccc1)C(Cc1ccccc1)NS(=O)(=O)c1cccc2nsnc12 (stereo unspecified) | inconclusive: 18.4 µM [activator, partial curve, poor fit] |  |
| O=C(Nc1cc([N+](=O)[O-])ccc1N1CCCC1)c1ccco1 | inconclusive: 14.6 µM [falling, partial curve, poor fit] |  |
| C=CCN(C(=O)c1cccc(S(=O)(=O)N2CCN(C)CC2)c1)c1nc(-c2ccccc2)cs1 | inconclusive: 20.6 µM [falling, partial curve, poor fit] |  |
| COc1cc(/C=C2\SC(=S)N(NC(=O)c3cccnc3)C2=O)ccc1O | inconclusive: 20.6 µM [falling, single point] |  |
| COc1ccccc1N1C(=O)C=C(Sc2nc(C)cc(C)n2)C1=O |  | inactive: 4.21% |
| Nc1nc(-c2ccccn2)nc(N)c1Cc1c(F)cccc1Cl | inconclusive: 25.9 µM [falling, partial curve, poor fit] |  |
| Cc1ccc(Cl)cc1N1CCN(C(=O)CCCn2c(=O)[nH]c3ccc(Br)cc3c2=O)CC1 |  | inactive: -4.32% |
| O=S(=O)(Nc1ccc(N2CCOCC2)cc1)c1ccc2ccccc2c1 | inconclusive: 9.2 µM [activator, partial curve, poor fit] |  |
| Cc1cc(N)n(-c2nc(-c3cccnc3)nc3ccccc23)n1 | inconclusive: 29.1 µM [activator, partial curve, poor fit] |  |
| O=C1c2cccc(NCCNCCO)c2C(=O)c2cccc(NCCNCCO)c21 | active: 18.4 µM |  |
| COC(=O)c1ccc2c(c1)C(C)(C)C(/C=C/c1ccc(O)cc1)=[N+]2C | inconclusive: 22.4 µM [falling, single point] |  |
| COc1ccc2cc(CNc3ccc(OC)c(OC)c3)c(=O)n(CC(=O)Nc3ccccc3F)c2c1 | inconclusive: 14.6 µM [falling, partial curve, poor fit] |  |
| Cc1cccc(-n2nc(CC#N)c(C#N)c2N)c1 | inconclusive: 9.2 µM [activator, partial curve, poor fit] |  |
| O=c1cc(-c2ccccc2)nc2cc(-c3ccc(Br)cc3)[nH]n12 |  | inactive: 1.41% |

Sorted by formula weight (ascending): three of the compounds above.

| Compound | Potency | activity change, negative = cytotoxicity |
| --- | --- | --- |
| CCOC(=O)Cn1cnc2c(cnn2-c2ccc(OC)cc2)c1=O |  | inactive: -0.868% |
| O=C(Nc1ccc(Cl)c(Cl)c1)Nc1ccc(N2CCCC2)c(S(=O)(=O)Nc2ccccc2Cl)c1 | inconclusive: 25.9 µM [falling, single point] |  |
| COCCCNC(=O)CSc1nc2cc3c(cc2c(=O)n1CCCCCC(=O)NCc1ccc2c(c1)OCO2)OCO3 |  | inactive: -5.3% |
